According to PubChem BioAssay AID504444 (National Center for Advancing Translational Sciences (NCATS), 2011):
“And” between values parts separate entries of the source, which are not always exact repeats. Identical values can stand only once. Out of some 360,000 compounds screened, about 7,500 (2.1%) were called active. This list was built around the results that the source calls inconclusive (neither active nor inactive); the mix of calls is not that of the screen. Calls follow the shape of the dose curve; as a rule, active = well fitted inhibition curve with a large enough effect; inconclusive = small, poorly fitted or top-dose-only effect, or effect the other way; inactive = flat fitted curve, though single readings scatter. Where the call is inconclusive, the potency comes from a doubtful curve fit.

Test: Nrf2 qHTS screen for inhibitors; also: nearly all actives have a fitted effect of over 60% in size
Conditions: A549 ARE-Fluc reporter, luciferase luminescence, 18-24 h; activity change, negative = inhibition: at 46 µM (top of the series)
Outline: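 Concentration-response testing used A549 ARE_Fluc cells at 5000 cells/well. Following an 18-24 h compound incubation, viability was read by fluorescence (Ex 405/Em 525) and luciferase output by luminescence.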
% is scaled to controls: 0 for no effect and ±100 for the full control effect; potency is read from the fitted curve at half-maximal effect.

Structure (SMILES)	Potency	activity change, negative = inhibition
CCCCN=C[C@]12CCC(O)CC1(O)CCC1[C@@H]2CC[C@]2(C)[C@H](C3C=CC(=O)O3)CCC12O (some centres not stated)	inconclusive: 1.46 µM [falling, full curve, poor fit]	
COC(=O)C1=C(c2ccc(F)cc2OCc2ccccc2)C[C@@H]2CC[C@H]1N2C(=O)NCc1ccc(Br)cc1	active: 14.6 µM	
CC(=O)OC1CC(OC2C(O)CC(OC3C(O)CC(OC4CCC5(C)C(CCC6C5CCC5(C)C(C7=CC(=O)OC7)C(O)CC65O)C4)OC3C)OC2C)OC(C)C1OC1OC(CO)C(O)C(O)C1O (configuration not stated)	active: 0.326 µM	
C=CCN1C(=O)/C(=C\c2ccc(N3CCOCC3)o2)C(=O)NC1=S		inactive: 20.7%
C[C@H]1CN([C@@H](C)CO)C(=O)c2cc(NC(=O)C3CCCCC3)ccc2O[C@H]1CN(C)Cc1ccc(-c2ccccc2)cc1	inconclusive: 29.1 µM [falling, single point]	
O=[N+]([O-])c1ccc(N2CCCC2)c2ccncc12	inconclusive: 29.1 µM [falling, single point]	
COC(=O)Cn1cc(/C=C2\C(=O)NC(=O)N(c3ccc(OC)cc3)C2=O)c2ccccc21		inactive: 0.977%
CCC(C)N1C(=O)/C(=C\c2ccc(N3CCCCCC3)cc2)C(=O)NC1=S (configuration not stated)		inactive: 1.23%
Cc1cc(O)c2c(c1)C(=O)C13C(=C2O)C(=O)[C@H]2[C@@H](O)[C@@H]1[C@H]1[C@H](O)[C@@H]3C(=O)C3=C(O)c4c(O)cc(C)cc4C(=O)C312 (some centres not stated)	inconclusive: 4.61 µM [falling, partial curve, poor fit]	
CN1C2CCC1CC(OC(=O)c1cc(Cl)cc(Cl)c1)C2 (configuration not stated)	inconclusive: 20.6 µM [activator, single point]	
Cc1ccc(OCCn2cccc2/C=C2/C(=O)NC(=O)N(Cc3ccco3)C2=O)cc1	inconclusive: 20.6 µM [activator, single point]	
Cc1cc(C(=O)Nc2ccccc2)nn1C(C)(C)C	inconclusive: 3.26 µM [activator, full curve]	
Cc1ccc(O)c(C(=O)c2cc(C(=O)NCc3ccccc3)c(=O)n(Cc3ccccc3)c2)c1	inconclusive: 29.1 µM [falling, single point]	
COc1cc([C@@H]2c3cc4c(cc3[C@H](OC(C)=O)[C@H]3COC(=O)[C@@H]23)OCO4)cc(OC)c1OC	inconclusive: 16.4 µM [activator, partial curve]	
COC(=O)[C@@H]1[C@@H](C(=O)OC)C2(c3ccccc3-c3ccccc32)N(c2ccc(Cl)cc2)N1C#N	inconclusive: 29.1 µM [falling, single point]	
CC(C)COP(=O)(OCC(C)C)C(Nc1ccccc1)c1ccccc1 (configuration not stated)	inconclusive: 16.4 µM [falling, partial curve, poor fit]	
On1ccccc1=S	inconclusive: 20.6 µM [falling, single point]	
Cc1cc(C)c2c(c1)NP(=S)(c1ccccc1)N2 (configuration not stated)	inconclusive: 18.4 µM [activator, single point]	
CSc1cccc(CNC(=O)C2CCC(=O)N(Cc3cccc(C(F)(F)F)c3)C2)c1 (configuration not stated)	inconclusive: 2.06 µM [activator, partial curve, poor fit]	
COc1cc(Cl)c(C)cc1NC(=O)CCCn1c(=O)oc2ccccc21	inconclusive: 29.1 µM [falling, single point]	
CC1(C)CSC(=NCc2ccccc2)N1		inactive: -5.13%

Structure (SMILES)	Potency	activity change, negative = inhibition
COc1ccc2c(c1)-c1nc(NC(=O)c3ccc(Cl)cc3)sc1CC2	inconclusive: 29.1 µM [falling, single point]	
C=CCn1c(O)c(C(CC)=Nc2ccc3c(c2)CCC3)c(=O)[nH]c1=O	inconclusive: 32.6 µM [falling, single point]	
COCc1cc(C)c(C#N)c(=S)[nH]1	inconclusive: 29.1 µM [activator, single point]	
O=P(C(c1c[nH]c2ccccc12)N1CCOCC1)(N1CCOCC1)N1CCOCC1 (configuration not stated)		inactive: 9.38%
Cc1cc(N(CCCl)CCCl)ccc1/C=N/N=C(\N)c1cnccn1	inconclusive: 20.6 µM [activator, partial curve]	
CCCCn1c(O)c(C=Nc2c(C)n(C)n(-c3ccccc3)c2=O)c(=O)[nH]c1=O		inactive: -11%
O=C1C(=O)c2cccc3cccc1c23		inactive: 11.1%
Nc1ccc(Oc2cccc(Oc3ccc(N)cc3)c2)cc1	inconclusive: 20.6 µM [falling, single point]	
Cc1ccc(S(=O)(=O)NP(=O)(Oc2ccccc2)Oc2ccccc2)cc1		inactive: 0.853%
Cc1ccc2c(c1)NP(=S)(Oc1ccccc1)N2 (configuration not stated)	inconclusive: 25.9 µM [activator, single point]	
O=C(Nc1ccc(F)cc1F)c1cccn(Cc2ccccc2)c1=O	inconclusive: 32.6 µM [falling, single point]	
COC(=O)C1=C(c2cccc(OCc3ccccc3)c2)C[C@@H]2CC[C@H]1N2C(=O)NCc1ccc(C(F)(F)F)cc1	inconclusive: 18.4 µM [falling, partial curve]	
COc1ccc(CCNC(=O)c2c(N)n(CCN3CCOCC3)c3nc4ccccc4nc23)cc1OC	inconclusive: 32.6 µM [falling, single point]	
CCCCCCCCCCCCCCCC[n+]1ccccc1	active: 16.4 µM and active: 8.2 µM	
Cc1cc(OC(=O)c2cccs2)c2c3c(c(=O)oc2c1)CCCC3		inactive: 8.6%
CCN1C(=O)NC(=O)/C(=C/c2cc(C)n(-c3sc(C)c(C)c3C#N)c2C)C1=O		inactive: 3.27%
CCN1CCN(S(=O)(=O)c2ccc(Cl)c(C(=O)Nc3ccc(C(=O)N(CC)CC)cc3)c2)CC1	inconclusive: 13 µM [falling, partial curve]	
CCCCNC(=O)Nc1ccc(C(O)(C(=O)OC)C(F)(F)F)cc1 (configuration not stated)	inconclusive: 11.6 µM [activator, partial curve, poor fit]	
Cc1cccc(-n2nc(C)c(C(=O)N3CCN(c4ccccc4)CC3)c2-n2cccc2)c1	inconclusive: 25.9 µM [falling, single point]	
CN(c1ccc(OCC(=O)N2CCN(C/C=C/c3ccccc3)CC2)cc1)S(=O)(=O)c1cccs1	inconclusive: 29.1 µM [falling, single point]	
COC(=O)C1=C(c2ccc(OC(F)(F)F)cc2)C[C@@H]2CC[C@H]1N2C(=O)NCc1cccc2ccccc12	inconclusive: 16.4 µM [falling, single point]	

Structure (SMILES)	Potency	activity change, negative = inhibition
C[C@]12CCC3C(CC[C@H]4CC(O)CC[C@]34C)C1CC/C2=N/NC(=O)c1ccncc1 (some centres not stated)	inconclusive: 25.9 µM [falling, single point]	
Cc1c(P(=S)(c2ccccc2)c2ccccc2)[n+]2ccccc2n1C	inactive	
O=[N+]([O-])c1ccc(N2CCCNCC2)c2ncccc12	inconclusive: 32.6 µM [falling, single point]	
CCOc1cc2c(cc1OCC)-n1cccc1C(c1ccc(OC)cc1)NC2 (configuration not stated)	inconclusive: 0.092 µM [falling, full curve, poor fit]	
COC(=O)C1=C(c2ccc(F)cc2OCc2ccccc2)C[C@@H]2CC[C@H]1N2C(=O)NCc1ccc(N(C)C)cc1	inconclusive: 29.1 µM [falling, single point]	
Clc1ccc(C(c2ccc(Cl)cc2)n2cc[n+](CC(OCc3ccc(Cl)cc3Cl)c3ccc(Cl)cc3Cl)c2)cc1 (configuration not stated)	inconclusive: 29.1 µM [falling, single point]	
COC(=O)C1=C(c2cccc(OCc3ccccc3)c2)C[C@@H]2CC[C@H]1N2C(=O)NNCc1ccccc1	inconclusive: 29.1 µM [falling, single point]	
COP(=S)(OC)Oc1ccc(Sc2ccc(OP(=S)(OC)OC)cc2)cc1	inconclusive: 29.1 µM [falling, single point]	
CCn1c(O)c(C=NCc2ccccc2)c(=O)[nH]c1=S	inconclusive: 1.16 µM [activator, full curve, poor fit]	
CCOC(=O)N(C)c1ccc(C(O)(C(=O)OCC)C(F)(F)F)cc1 (configuration not stated)	inconclusive: 0.366 µM [falling, full curve, poor fit]	
COCCCn1c(N)c(C(=O)OCCOC)c2nc3ccccc3nc21		inactive: 0.405%
COP(=O)(OC)c1nc(-c2cccc3ccccc23)oc1N1CCOCC1	inconclusive: 32.6 µM [falling, single point]	
CN1C(=O)C(C)(C2=CCCCC2)C(=O)NC1=S (configuration not stated)	inconclusive: 6.51 µM [falling, single point]	
COc1ccc(N2CCN(Cc3nc4ccccc4[nH]3)CC2)cc1		inactive: 0.55%
COC(=O)C1=C(c2cccc(OCc3ccccc3)c2)C[C@@H]2CC[C@H]1N2C(=O)NCCOc1ccccc1Cl	inconclusive: 25.9 µM [falling, single point]	
COc1cccc(C(=O)Nc2ccc3nc(SCC(=O)N(C)c4ccccc4)sc3c2)c1	inconclusive: 29.1 µM [falling, single point]	
Cc1ccc(CNC(=O)c2ccc(CSc3nc4ccncc4n3Cc3ccc(C)cc3)cc2)cc1	inconclusive: 13 µM [falling, partial curve]	
COC(=O)C1=C(c2ccc(F)cc2OCc2ccccc2)C[C@@H]2CC[C@H]1N2C(=O)NC1CCCCC1	inconclusive: 29.1 µM [falling, single point]	
Cc1ccc(Cl)cc1N1CCN(c2ncnc3c2nc2n3CCCC2)CC1	inconclusive: 29.1 µM [falling, single point]	
S=P(c1ccccc1)(c1ccccc1)c1cnc2ccccn12	inconclusive: 0.13 µM [falling, full curve, poor fit]	
